Reference: patent US20240366649A1, “4-ETHYNYL-3-HYDROXY-TETRAHYDROFURANYL-ADENINE PHOSPHORAMIDATES AND RELATED COMPOUNDS AND THEIR USE IN TREATING MEDICAL CONDITIONS” (ROME THERAPEUTICS, INC., priority 2021, published 2024)

Test system: IFN production in THP1 TREX1 KO cells
Assay: Cellular assay for altering IFN production in THP1 TREX1 KO cells
Conditions: lowest concentration at which the maximum-fold IFN induction was observed
Experimental: THP1-Dual™ KO-TREX1 cells were purchased from Invivogen (cat #thpd-kotrex). The THP1-Dual™ KO-TREX1 cells were cultured in RPMI 1640, 10% heat-inactivated fetal bovine serum, 25 mM HEPES, 10 μg/mL Blasticidin, and […] Zeocin. THP1-Dual™ KO-TREX cells were treated with a dose titration of test compound in the presence of 1 μM 5-aza-2′-deoxycytidine (Sigma, cat #189825). Type 1 Interferon and cell viability were assessed after five days of treatment.
Stock solution of test compound was prepared in DMSO followed by a three-fold dilution in DMSO. Additional 50× dilution was prepared in cell culture media for each dilution. 10 μL of diluted test compound was then added to a 384-well plate.
THP1-Dual™ KO-TREX1 cells were treated with 1 μM 5-aza-2′-deoxycytidine. THP1-Dual™ KO-TREX1 cells (50 μL) were added to each well of the 384-well plate containing test compound titration at 10,000 cells/well. Cells were incubated at 37° C., 5% CO2 in a humidified incubator for five days. On day five, 20 μL of cell supernatant was transferred to a 384-well, white-walled plate, followed by addition to each well of 50 μL of QUANTI-LUC solution containing stabilizer. Luminescence was detected on a plate reader according to manufacturer's instructions. […]

## C#C[C@]1(COP(=O)(N[C@@H](C)C(=O)OCc2ccccc2)Oc2ccccc2)O[C@@H](n2cnc3c(N)nc(Cl)nc32)C[C@@H]1O (stereo partly shown)
  Concentration at Max Induct.: 10 μM and 3.3 μM

The source holds more than one record for some entries. This list holds those alone. There may be further records. Values that stand side by side read as repeated measurements on other runs, samples or individuals.
